Data reported in the supplement of paper PMC12067093, “Discovery and optimisation of a covalent ligand for TRIM25 and its application to targeted protein ubiquitination” (Chemical Science, 2025).
This is one part of the list.

Chains of the proteins cited; added tags and fusions are not shown. Lines headed by an entry give the natural chain unless they say otherwise; changes in a name come on top.
UniProt P46939: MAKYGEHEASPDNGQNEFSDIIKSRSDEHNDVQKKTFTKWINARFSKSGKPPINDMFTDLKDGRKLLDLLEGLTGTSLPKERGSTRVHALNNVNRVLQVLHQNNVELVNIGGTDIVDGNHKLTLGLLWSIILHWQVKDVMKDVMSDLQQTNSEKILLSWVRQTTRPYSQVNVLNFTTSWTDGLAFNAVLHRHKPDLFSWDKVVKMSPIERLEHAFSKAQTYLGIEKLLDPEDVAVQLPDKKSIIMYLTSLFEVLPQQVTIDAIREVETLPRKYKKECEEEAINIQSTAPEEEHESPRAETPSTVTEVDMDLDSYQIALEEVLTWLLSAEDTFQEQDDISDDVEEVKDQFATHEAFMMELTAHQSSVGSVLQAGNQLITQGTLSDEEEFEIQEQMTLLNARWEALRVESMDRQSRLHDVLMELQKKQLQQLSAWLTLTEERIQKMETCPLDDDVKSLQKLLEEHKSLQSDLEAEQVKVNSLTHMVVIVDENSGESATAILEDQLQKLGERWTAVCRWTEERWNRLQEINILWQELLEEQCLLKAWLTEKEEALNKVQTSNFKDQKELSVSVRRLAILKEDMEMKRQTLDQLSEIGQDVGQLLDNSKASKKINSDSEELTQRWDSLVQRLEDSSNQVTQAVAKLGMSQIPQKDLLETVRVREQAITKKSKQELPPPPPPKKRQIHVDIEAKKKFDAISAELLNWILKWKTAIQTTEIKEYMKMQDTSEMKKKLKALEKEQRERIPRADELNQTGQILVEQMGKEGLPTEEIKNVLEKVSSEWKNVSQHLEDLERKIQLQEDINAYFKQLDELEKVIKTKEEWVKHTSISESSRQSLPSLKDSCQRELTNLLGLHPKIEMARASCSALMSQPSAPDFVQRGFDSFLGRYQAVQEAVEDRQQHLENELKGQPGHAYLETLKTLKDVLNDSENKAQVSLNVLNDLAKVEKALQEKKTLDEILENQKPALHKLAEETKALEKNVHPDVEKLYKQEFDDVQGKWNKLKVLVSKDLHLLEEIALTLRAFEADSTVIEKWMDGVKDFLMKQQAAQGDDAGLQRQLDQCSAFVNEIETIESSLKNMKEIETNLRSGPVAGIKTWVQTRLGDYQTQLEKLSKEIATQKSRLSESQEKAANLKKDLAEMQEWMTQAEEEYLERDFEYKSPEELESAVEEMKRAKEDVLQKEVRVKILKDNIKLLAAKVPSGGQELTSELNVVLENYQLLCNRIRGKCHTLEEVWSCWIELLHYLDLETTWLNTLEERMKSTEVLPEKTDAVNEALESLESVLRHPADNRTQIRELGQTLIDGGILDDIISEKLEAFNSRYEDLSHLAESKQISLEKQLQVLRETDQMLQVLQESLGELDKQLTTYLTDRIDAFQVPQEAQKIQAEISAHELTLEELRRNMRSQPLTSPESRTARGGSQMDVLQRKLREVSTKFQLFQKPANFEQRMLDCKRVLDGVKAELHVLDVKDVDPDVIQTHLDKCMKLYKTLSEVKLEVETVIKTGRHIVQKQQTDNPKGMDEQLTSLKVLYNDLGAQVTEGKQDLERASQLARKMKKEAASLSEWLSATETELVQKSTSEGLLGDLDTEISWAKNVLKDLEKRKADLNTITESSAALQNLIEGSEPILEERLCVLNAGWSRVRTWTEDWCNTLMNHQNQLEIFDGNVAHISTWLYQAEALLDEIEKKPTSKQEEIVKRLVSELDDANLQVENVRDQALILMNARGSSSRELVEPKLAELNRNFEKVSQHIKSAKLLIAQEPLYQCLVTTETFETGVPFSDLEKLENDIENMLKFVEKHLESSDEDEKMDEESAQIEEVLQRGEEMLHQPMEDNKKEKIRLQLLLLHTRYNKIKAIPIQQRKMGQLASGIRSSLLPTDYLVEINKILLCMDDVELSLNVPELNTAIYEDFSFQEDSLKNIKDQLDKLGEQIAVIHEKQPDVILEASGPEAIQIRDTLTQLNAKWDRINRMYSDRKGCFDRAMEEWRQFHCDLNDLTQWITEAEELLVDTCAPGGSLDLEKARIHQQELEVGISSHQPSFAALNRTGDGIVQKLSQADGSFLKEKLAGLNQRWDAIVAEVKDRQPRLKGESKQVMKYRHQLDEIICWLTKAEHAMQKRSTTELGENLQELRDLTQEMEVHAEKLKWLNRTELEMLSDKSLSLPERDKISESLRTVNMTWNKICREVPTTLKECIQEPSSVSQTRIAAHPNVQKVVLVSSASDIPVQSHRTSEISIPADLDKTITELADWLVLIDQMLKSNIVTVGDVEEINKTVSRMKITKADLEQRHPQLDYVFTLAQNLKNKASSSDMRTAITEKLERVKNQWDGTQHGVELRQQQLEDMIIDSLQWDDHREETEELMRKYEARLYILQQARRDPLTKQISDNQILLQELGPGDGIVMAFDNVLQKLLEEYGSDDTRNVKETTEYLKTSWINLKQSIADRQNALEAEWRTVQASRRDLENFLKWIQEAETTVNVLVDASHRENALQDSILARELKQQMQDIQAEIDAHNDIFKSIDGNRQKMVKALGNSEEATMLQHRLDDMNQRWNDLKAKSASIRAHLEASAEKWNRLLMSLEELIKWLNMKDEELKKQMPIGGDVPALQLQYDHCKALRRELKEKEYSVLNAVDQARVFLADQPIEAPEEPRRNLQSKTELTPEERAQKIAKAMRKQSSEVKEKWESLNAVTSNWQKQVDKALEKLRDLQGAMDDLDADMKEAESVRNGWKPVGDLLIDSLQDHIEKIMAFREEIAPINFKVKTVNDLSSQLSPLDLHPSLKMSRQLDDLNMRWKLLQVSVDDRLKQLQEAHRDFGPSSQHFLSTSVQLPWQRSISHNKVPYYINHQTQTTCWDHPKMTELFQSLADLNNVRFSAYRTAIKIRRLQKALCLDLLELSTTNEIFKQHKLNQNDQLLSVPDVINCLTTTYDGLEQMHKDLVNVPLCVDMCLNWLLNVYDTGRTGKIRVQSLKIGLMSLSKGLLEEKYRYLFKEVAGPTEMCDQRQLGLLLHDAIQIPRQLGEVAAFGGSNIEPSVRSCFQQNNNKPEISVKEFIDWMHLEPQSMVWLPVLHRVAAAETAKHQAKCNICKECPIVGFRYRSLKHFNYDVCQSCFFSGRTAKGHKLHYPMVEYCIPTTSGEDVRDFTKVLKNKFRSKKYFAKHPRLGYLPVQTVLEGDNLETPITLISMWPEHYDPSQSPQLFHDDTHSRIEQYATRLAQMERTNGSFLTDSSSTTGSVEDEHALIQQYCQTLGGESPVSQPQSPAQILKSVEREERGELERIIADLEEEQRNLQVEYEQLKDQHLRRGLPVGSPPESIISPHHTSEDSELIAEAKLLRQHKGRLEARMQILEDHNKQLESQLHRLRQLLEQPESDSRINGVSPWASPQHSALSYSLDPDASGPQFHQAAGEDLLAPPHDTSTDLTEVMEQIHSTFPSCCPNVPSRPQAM
UniProt Q9H269: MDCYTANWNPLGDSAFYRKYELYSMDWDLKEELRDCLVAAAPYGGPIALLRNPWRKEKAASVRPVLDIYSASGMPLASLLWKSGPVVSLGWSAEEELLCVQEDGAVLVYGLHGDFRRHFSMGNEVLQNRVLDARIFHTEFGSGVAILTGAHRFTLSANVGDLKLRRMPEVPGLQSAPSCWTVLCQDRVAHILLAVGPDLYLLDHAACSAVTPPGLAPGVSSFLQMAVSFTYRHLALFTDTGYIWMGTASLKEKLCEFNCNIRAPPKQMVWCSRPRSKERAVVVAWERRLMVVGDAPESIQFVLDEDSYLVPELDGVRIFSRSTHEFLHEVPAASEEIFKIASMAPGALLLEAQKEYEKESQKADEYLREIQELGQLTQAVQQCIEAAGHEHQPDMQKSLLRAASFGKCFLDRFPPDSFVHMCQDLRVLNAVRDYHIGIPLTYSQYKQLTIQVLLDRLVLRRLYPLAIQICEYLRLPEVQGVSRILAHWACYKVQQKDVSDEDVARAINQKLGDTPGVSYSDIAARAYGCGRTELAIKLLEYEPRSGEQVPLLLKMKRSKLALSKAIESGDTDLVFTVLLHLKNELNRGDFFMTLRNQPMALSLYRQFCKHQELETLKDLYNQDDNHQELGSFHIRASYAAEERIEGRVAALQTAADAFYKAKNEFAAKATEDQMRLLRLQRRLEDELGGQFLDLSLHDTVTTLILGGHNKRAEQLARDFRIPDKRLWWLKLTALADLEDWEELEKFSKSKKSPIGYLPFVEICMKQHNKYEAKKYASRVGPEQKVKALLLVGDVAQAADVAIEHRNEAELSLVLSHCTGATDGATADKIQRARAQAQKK
UniProt Q9BTA9: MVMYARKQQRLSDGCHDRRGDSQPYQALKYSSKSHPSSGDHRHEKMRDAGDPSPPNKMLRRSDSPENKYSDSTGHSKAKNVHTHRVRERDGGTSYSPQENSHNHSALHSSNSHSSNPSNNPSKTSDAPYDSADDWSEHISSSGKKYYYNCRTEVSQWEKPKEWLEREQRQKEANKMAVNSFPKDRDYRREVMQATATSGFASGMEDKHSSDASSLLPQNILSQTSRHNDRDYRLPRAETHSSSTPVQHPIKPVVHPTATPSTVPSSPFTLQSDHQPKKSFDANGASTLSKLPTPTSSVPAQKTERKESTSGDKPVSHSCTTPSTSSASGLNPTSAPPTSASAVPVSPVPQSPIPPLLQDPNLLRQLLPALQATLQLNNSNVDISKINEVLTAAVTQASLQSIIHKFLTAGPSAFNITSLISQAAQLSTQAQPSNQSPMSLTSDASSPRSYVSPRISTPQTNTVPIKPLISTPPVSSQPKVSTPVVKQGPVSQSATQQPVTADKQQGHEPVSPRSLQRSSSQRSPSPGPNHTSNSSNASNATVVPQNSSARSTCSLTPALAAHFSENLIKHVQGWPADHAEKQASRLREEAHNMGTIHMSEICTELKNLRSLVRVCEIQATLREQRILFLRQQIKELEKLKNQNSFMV
UniProt P18206: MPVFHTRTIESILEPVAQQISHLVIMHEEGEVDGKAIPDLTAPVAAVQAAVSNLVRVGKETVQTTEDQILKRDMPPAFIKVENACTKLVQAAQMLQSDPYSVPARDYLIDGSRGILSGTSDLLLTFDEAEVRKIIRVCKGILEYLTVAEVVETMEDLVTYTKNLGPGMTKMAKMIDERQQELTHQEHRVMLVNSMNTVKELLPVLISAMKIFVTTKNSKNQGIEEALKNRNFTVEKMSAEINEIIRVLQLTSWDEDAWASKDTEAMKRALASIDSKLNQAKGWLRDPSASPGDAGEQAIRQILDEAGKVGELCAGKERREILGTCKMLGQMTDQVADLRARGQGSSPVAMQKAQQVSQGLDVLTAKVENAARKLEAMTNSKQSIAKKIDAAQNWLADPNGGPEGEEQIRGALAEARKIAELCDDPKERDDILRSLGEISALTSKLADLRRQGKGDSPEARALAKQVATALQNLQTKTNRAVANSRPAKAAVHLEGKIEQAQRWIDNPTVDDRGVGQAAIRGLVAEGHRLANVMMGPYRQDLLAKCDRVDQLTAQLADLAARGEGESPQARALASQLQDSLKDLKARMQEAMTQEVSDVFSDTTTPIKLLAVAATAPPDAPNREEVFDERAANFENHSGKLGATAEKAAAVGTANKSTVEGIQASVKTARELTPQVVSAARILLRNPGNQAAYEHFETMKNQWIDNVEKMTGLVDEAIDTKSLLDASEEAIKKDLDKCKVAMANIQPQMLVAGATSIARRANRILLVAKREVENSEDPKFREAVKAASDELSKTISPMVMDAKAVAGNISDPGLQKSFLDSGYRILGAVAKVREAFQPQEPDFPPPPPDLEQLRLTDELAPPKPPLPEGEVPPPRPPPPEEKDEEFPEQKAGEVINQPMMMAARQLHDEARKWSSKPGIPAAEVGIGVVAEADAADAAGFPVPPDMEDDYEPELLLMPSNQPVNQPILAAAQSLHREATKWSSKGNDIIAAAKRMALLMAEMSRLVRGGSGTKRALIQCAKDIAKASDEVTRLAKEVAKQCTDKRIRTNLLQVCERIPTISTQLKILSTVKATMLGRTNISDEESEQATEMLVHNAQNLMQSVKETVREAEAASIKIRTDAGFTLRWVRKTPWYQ
UniProt Q99536: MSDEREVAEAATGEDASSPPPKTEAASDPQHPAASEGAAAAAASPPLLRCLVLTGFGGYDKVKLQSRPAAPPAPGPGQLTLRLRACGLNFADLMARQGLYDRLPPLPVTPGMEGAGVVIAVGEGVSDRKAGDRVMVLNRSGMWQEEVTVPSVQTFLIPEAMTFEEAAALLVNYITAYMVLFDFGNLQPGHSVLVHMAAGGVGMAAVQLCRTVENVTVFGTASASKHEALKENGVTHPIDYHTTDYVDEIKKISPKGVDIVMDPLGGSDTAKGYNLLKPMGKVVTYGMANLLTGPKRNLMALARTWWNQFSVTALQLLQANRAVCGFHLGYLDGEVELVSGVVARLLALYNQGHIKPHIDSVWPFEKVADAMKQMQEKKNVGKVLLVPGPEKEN

Compound: CC1Cc2ccccc2N1C(=O)C1CCCN(C1)C(=O)CCl (mixture of isomers) [TRIM25 ligand 11 (diastereomer mixture)]
Assay: probe-labelled cysteine peptide fold change vs DMSO (competition) (log2 fold change); higher = less target engagement (more negative = stronger competition)
Conditions: THP-1, incubation time: 4 h
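Also: competitive chemoproteomic profiling in live THP-1 cells with an iodoacetamide desthiobiotin (IA-DTB) probe, comparing probe-labelled peptide intensities in compound-treated cells against DMSO-treated controls.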

Row | Target | probe-labelled cysteine peptide fold change (10 µM) | probe-labelled cysteine peptide fold change (50 µM)
1 | VCP_P55072_209_EDEEESLNEVGYDDIGGCRK (UniProt P55072) | -0.222 | -0.151
2 | USP9X_Q93008_842_ASYDTLCVLDGDKDSVNCAR (UniProt Q93008) | -0.133 | -0.0909
3 | VLDLR_P98155_33_CEPSQFQCTNGR (UniProt P98155) | -0.0235 | -0.0407
4 | VAT1L_Q9HCJ6_78_ACGLNFIDLMVR (UniProt Q9HCJ6) | 0.0668 | -0.122
5 | VPS36_Q86VN1_271_GGIMSLTEVYCLVNR (UniProt Q86VN1) | 5.03e-06 | 0.0661
6 | VTA1_Q9NP79_87_KQLGDNEAITQEIVGCAHLENYALK (UniProt Q9NP79) | -0.158 | -0.183
7 | VCPIP1_Q96JH7_344_DGHLNKPICIAWSSSGR (UniProt Q96JH7) | -0.115 | 0.0325
8 | VPS13C_Q709C8_2289_GIEHSLIEENCGVVVESIQVTLECGLGHR (UniProt Q709C8) | 0.103 | 0.0377
9 | VPS33A_Q96AX1_121_SLLCEQR (UniProt Q96AX1) | -0.039 | 0.0394
10 | VAC14_Q08AM6_101_ELIEPVLTCFNDADSR (UniProt Q08AM6) | -0.258 | -0.33
11 | UTRN_P46939_1218_VPSGGQELTSELNVVLENYQLLCNR (UniProt P46939) | -0.243 | 0.00523
12 | VPS33A_Q96AX1_163_ECYLEGDQTSLYHAAK (UniProt Q96AX1) | 0.202 | 0.0498
13 | VPS45_Q9NRW7_359_NLLEVSEVEQELACQNDHSSALQNIK (UniProt Q9NRW7) | 0.273 | -0.0913
14 | VPS16_Q9H269_763_KSPIGYLPFVEICMK (UniProt Q9H269) | -0.373 | -0.281
15 | VCP_P55072_691_MTNGFSGADLTEICQR (UniProt P55072) | -0.0324 | 0.00465
16 | VPS13C_Q709C8_1372_ILTENLCEGTEDLDK (UniProt Q709C8) | 0.089 | 0.414
17 | VCP_P55072_535_AIANECQANFISIK (UniProt P55072) | -0.0612 | -0.135
18 | VAMP7_P51809_64_IVYLCITDDDFER (UniProt P51809) | 0.375 | 0.342
19 | UTP20_O75691_295_EHFGTFFECLQESLLDLHTK (UniProt O75691) | 0.19 | 0.107
20 | VASP_P50552_334_SSSSVTTSETQPCTPSSSDYSDLQR (UniProt P50552) | -0.0716 | -0.102
21 | UTRN_P46939_1627_LCVLNAGWSR (UniProt P46939) | 0.0369 | 0.0212
22 | VPS41_P49754_638_DSTHCPLEK (UniProt P49754) | 0.227 | 0.214

Row | Target | probe-labelled cysteine peptide fold change (10 µM) | probe-labelled cysteine peptide fold change (50 µM)
23 | VPS51_Q9UID3_226_AIQDDCQVITAR (UniProt Q9UID3) | -0.0611 | 0.0255
24 | USP8_P40818_939_STVQCLTCHK (UniProt P40818) | 0.0545 | 0.19
25 | VLDLR_P98155_344_VCNQEQDCR (UniProt P98155) | 0.166 | 0.0149
26 | VARS_P26640_927_FGLCAYMSQGR (UniProt P26640) | -0.119 | -0.141
27 | VCP_P55072_522_GVLFYGPPGCGK (UniProt P55072) | -0.032 | -0.107
28 | USP9Y_O00507_1910_FDDGDVTECK (UniProt O00507) | 0.18 | 0.0303
29 | USP9X_Q93008_2293_KIIEDCSNSEETVK (UniProt Q93008) | 0.127 | 0.0296
30 | VCPIP1_Q96JH7_538_DVLVPDYGMSNLTACNWCHGTSVR (UniProt Q96JH7) | 0.0851 | 0.205
31 | WAC_Q9BTA9_15_LSDGCHDR (UniProt Q9BTA9) | 0.0462 | -0.212
32 | VPS28_Q9UK41_70_DCVSPSEYTAACSR (UniProt Q9UK41) | -0.0796 | 0.531
33 | VPS13C_Q709C8_2276_GIEHSLIEENCGVVVESIQVTLECGLGHR (UniProt Q709C8) | -0.283 | -0.278
34 | VIRMA_Q69YN4_1170_SFSGTTCQPIQHMLR (UniProt Q69YN4) | 0.00804 | 0.274
35 | UTP20_O75691_2388_QLAALICGLFVESEGVDFEKR (UniProt O75691) | 0.122 | 0.227
36 | WAC_Q9BTA9_553_STCSLTPALAAHFSENLIK (UniProt Q9BTA9) | 0.128 | -0.221
37 | VAV1_P15498_652_NTSTNEIGWFPCNR (UniProt P15498) | 0.00386 | -0.0666
38 | VCL_P18206_1018_ALIQCAK (UniProt P18206) | -0.0782 | 0.125
39 | VPS13C_Q709C8_2906_WNYIASSECLPFWPESLSGK (UniProt Q709C8) | -0.143 | 0.254
40 | VCPIP1_Q96JH7_469_CLLCGALSELHVPPEWLAPGGK (UniProt Q96JH7) | -0.198 | -0.24
41 | VCP_P55072_69_REAVCIVLSDDTCSDEK (UniProt P55072) | -0.0101 | -0.185
42 | VPS18_Q9P253_433_EADFCFR (UniProt Q9P253) | -0.0527 | -0.114
43 | VEZF1_Q14119_327_TCMSEETSNQK (UniProt Q14119) | -0.186 | -0.42
44 | VAV1_P15498_71_EVNLRPQMSQFLCLK (UniProt P15498) | -0.0166 | 0.0874

Row | Target | probe-labelled cysteine peptide fold change (10 µM) | probe-labelled cysteine peptide fold change (50 µM)
45 | VAV1_P15498_83_TFLSTCCEK (UniProt P15498) | -0.0378 | 0.202
46 | VPS11_Q9H270_568_GLCTDYRPSLEGR (UniProt Q9H270) | 0.0588 | -0.176
47 | UTP6_Q9NYH9_328_CYITFCLER (UniProt Q9NYH9) | -0.241 | -0.109
48 | VAV1_P15498_369_DLAQCVNEVK (UniProt P15498) | 0.166 | 0.344
49 | VPS18_Q9P253_421_ERPDCLDTVLAR (UniProt Q9P253) | 0.0114 | -0.003
50 | VARS2_Q5ST30_549_QLWWGHQIPAYLVVEDHAQGEEDCWVVGR (UniProt Q5ST30) | 0.175 | 0.165
51 | VPS13C_Q709C8_2276+2289_GIEHSLIEENCGVVVESIQVTLECGLGHR (UniProt Q709C8) | 0.105 | -0.00969
52 | VASP_P50552_64_MQPDQQVVINCAIVR (UniProt P50552) | -0.027 | 0.0109
53 | VCPIP1_Q96JH7_469+472_CLLCGALSELHVPPEWLAPGGK (UniProt Q96JH7) | -0.0947 | -0.264
54 | VPS13B_Q7Z7G8_3937_VACDVEVDGVR (UniProt Q7Z7G8) | 0.0676 | -0.592
55 | VIRMA_Q69YN4_1559+1560_CCSDFDLHSELER (UniProt Q69YN4) | 0.0464 | -0.117
56 | VPS13D_Q5THJ4_3722_LTCGLHGLVVQAK (UniProt Q5THJ4) | -0.0283 | -0.0749
57 | VARS_P26640_1185_CSIHLQLQGLVDPARELGK (UniProt P26640) | -0.114 | -0.105
58 | VPS16_Q9H269_408_CFLDRFPPDSFVHMCQDLR (UniProt Q9H269) | 0.0533 | 0.0687
59 | UTP20_O75691_242_NMFHSCTGQAVK (UniProt O75691) | 0.0211 | 0.125
60 | VASP_P50552_64_KMQPDQQVVINCAIVR (UniProt P50552) | -0.174 | -0.0977
61 | USP9Y_O00507_148_CIINNTHR (UniProt O00507) | 0.0958 | 0.321
62 | VPS13C_Q709C8_1617_CNIADIK (UniProt Q709C8) | 0.0684 | 0.095
63 | VPS29_Q9UBQ0_36+41_IQHILCTGNLCTK (UniProt Q9UBQ0) | 0.0402 | -0.0827
64 | VPS18_Q9P253_741_QCADLPEEDEELRK (UniProt Q9P253) | -0.0236 | -0.0289
65 | VLDLR_P98155_251_CPASEIQCGSGECIHK (UniProt P98155) | 0.13 | -0.0623
66 | VTA1_Q9NP79_155_ATYIHNCLK (UniProt Q9NP79) | -0.12 | 0.0362

Row | Target | probe-labelled cysteine peptide fold change (10 µM) | probe-labelled cysteine peptide fold change (50 µM)
67 | VPS35_Q96QK1_653_TQCALAASK (UniProt Q96QK1) | 0.0283 | -0.00488
68 | VCL_P18206_325_EILGTCK (UniProt P18206) | 0.0764 | 0.0873
69 | VAT1_Q99536_324_AVCGFHLGYLDGEVELVSGVVAR (UniProt Q99536) | 0.0529 | -0.0181
70 | UTP23_Q9BRU9_103_NAVSGSECLLSMVEEGNPHHYFVATQDQNLSVK (UniProt Q9BRU9) | -0.0133 | -0.153
71 | VAT1_Q99536_50_CLVLTGFGGYDK (UniProt Q99536) | -0.0216 | -0.00631
72 | USP9X_Q93008_864_EYINECDSDYHEER (UniProt Q93008) | -0.0144 | -0.081
73 | VRK3_Q8IV63_288_SVLQVACR (UniProt Q8IV63) | -0.016 | 0.0415
74 | VPS33B_Q9H267_82_VENKPALSSNEQLCFLVRPR (UniProt Q9H267) | 0.00364 | 0.141
75 | VPS4A_Q9UN37_233_QHKPSIIFIDEVDSLCGSR (UniProt Q9UN37) | -0.0156 | -0.00261
76 | UTRN_P46939_2098_HQLDEIICWLTK (UniProt P46939) | -0.0117 | -0.0749
77 | VSIR_Q9H7M9_83_GEVQTCSER (UniProt Q9H7M9) | -0.0894 | 0.0102
78 | VPS13A_Q96RL7_1608_ACPFLPVK (UniProt Q96RL7) | -0.0957 | -0.164
79 | VCL_P18206_422_IAELCDDPKERDDILR (UniProt P18206) | -0.172 | -0.112
80 | VCPIP1_Q96JH7_160_DMNQGELFDCALLGDR (UniProt Q96JH7) | 0.168 | -0.264
81 | USP9Y_O00507_1568_NAGATCYMNSVIQQLYMIPSIR (UniProt O00507) | 0.0032 | -0.0424
82 | USP9Y_O00507_541_ILDYSCSQDR (UniProt O00507) | 0.355 | 0.183
83 | UTP20_O75691_616_LALCGCK (UniProt O75691) | 0.0199 | -0.0424
84 | VPS11_Q9H270_890_CSNDSFSVIADYFGR (UniProt Q9H270) | -0.0101 | -0.0874
85 | VPS11_Q9H270_586_EAPGCR (UniProt Q9H270) | 0.694 | 1.1
